This data set is described as follows: in vivo. Conditions: mouse, iv. The procedure: In female DS mice (body weight: about 20g), LD50 value after the intravenous administration of the compounds was calculated by the Brownlee's up and down method [J. Am. Sat. As., 48, 262 (1953)].

For orientation: LD50 means the dose at which mortality reaches 50%. A lower LD50 goes with greater toxicity. Take `COC(=O)C1=C(C)NC(C)=C(C(=O)OC)C1c1ccccc1[N+](=O)[O-]` [(A), Nifedipine, reference compound]: the LD50 was determined as 10.7 mg/kg.

Source of the values: patent US4873334A, “4,7-dihydropyrazolo(3,4-b) pyridine derivatives” (Shionogi & Co., Ltd., priority 1982, dated 1989).
